Test results taken from US5310559A, “Device for controlled release and delivery to mammalian tissue of pharmacologically active agents incorporating a rate controlling member which comprises an alkylene-alkyl acrylate copolymer” (Hercon Laboratories Corporation, priority 1992, dated 1994).

Experiment: Flux through human skin from articles of FIG. 4 (Example V)
Settings: reservoir 10% drug

In the case of CN1C2CC(OC(=O)C(CO)c3ccccc3)CC1C1OC12 (centres unmarked) [SCOPOLAMINE], the “Flux Thru Human Skin” value (with membrane 1.25 mil EMA (20% MA)) is reported as 0.32 ug/cm^2 /hour and the “Flux Thru Human Skin” value (without membrane, 35% PVC resin, 55% ADMEX 760) is reported as 1.95 ug/cm^2 /hour.
